Assay results reported in US20060252699A1, “Method for lowering serum homocysteine” (priority 2004, published 2006).

Test: L-isoleucine therapy for 10 weeks in postmenopausal women: serum folate and vitamin B12 levels
Assay type: in vivo, human
Details: associated with L-isoleucine therapy
Procedure: L-isoleucine therapy (3-5 grams/day divided into two doses per day) was administered to 17 postmenopausal women for 10 weeks. The L-isoleucine therapy was associated with an 11% average reduction in serum homocysteine levels among 14 post menopausal woman experiencing hot flashes.
None of the participants had clinically low folate or B12 at baseline or while on treatment.

Q: Which results are given for `CC[C@H](C)[C@H](N)C(=O)O` [L-isoleucine]?
A: changes in serum folate levels: no significant changes; changes in serum vitamin B12 levels: no significant changes
